# Reference: the supplement of paper PMC7666118
# Chains of the proteins cited; added tags and fusions are not shown. Lines headed by an entry give the natural chain unless they say otherwise; changes in a name come on top.
# UniProt Q96HN2, whole entry: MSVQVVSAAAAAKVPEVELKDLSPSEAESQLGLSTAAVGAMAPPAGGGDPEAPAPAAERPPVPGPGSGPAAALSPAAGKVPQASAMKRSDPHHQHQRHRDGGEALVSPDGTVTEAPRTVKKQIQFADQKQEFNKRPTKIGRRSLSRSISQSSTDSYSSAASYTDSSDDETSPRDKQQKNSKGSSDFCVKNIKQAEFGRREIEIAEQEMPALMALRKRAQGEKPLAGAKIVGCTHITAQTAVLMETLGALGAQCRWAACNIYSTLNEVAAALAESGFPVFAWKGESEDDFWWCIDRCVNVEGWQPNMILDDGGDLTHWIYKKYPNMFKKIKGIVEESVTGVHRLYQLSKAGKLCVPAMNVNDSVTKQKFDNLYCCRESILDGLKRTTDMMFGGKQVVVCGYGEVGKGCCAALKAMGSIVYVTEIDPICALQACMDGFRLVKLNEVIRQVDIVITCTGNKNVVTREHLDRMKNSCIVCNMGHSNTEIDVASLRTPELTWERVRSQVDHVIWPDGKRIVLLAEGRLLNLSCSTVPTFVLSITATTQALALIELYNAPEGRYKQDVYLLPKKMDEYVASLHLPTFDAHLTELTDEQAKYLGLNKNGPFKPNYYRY
# UniProt P14550: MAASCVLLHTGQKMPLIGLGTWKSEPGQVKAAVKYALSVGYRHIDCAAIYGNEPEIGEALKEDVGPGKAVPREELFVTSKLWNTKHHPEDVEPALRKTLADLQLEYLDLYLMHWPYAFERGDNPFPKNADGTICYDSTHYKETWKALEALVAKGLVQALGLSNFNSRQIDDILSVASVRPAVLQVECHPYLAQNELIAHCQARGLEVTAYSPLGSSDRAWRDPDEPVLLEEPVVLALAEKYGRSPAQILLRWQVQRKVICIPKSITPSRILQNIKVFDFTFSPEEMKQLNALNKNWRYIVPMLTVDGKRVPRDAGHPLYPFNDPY
# UniProt Q9BZZ5: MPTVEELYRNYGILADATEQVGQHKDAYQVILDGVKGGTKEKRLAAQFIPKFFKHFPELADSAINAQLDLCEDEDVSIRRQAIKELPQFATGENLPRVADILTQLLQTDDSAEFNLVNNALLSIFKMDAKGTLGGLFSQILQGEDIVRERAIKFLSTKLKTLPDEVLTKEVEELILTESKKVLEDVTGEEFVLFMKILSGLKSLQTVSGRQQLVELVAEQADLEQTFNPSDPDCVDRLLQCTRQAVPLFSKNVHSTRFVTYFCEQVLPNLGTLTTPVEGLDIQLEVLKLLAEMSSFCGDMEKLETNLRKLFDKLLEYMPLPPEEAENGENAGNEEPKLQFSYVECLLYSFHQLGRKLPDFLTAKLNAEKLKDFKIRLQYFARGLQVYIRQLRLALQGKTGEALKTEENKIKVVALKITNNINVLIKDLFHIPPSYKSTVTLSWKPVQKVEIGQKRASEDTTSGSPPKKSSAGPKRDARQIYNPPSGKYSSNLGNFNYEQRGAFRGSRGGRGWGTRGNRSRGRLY
# UniProt P56377: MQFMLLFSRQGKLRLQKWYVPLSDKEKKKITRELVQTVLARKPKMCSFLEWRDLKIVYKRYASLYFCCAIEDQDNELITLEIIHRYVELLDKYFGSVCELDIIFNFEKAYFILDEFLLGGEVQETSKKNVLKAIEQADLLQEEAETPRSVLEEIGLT
# UniProt P07311: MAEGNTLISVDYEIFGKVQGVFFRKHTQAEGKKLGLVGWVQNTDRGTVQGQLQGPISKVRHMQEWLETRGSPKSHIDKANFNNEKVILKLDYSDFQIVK
# UniProt Q9Y305: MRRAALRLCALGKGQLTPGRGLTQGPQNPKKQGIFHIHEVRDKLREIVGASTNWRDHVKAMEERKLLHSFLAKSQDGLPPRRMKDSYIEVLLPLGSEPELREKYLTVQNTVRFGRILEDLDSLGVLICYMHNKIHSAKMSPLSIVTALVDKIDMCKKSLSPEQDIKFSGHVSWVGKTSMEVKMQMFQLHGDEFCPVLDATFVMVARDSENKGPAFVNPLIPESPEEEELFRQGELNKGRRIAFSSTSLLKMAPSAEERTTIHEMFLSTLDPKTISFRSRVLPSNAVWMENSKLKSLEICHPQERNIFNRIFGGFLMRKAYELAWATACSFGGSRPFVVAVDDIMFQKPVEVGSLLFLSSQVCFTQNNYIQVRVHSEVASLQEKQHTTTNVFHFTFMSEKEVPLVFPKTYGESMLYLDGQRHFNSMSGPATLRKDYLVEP
# UniProt P53365: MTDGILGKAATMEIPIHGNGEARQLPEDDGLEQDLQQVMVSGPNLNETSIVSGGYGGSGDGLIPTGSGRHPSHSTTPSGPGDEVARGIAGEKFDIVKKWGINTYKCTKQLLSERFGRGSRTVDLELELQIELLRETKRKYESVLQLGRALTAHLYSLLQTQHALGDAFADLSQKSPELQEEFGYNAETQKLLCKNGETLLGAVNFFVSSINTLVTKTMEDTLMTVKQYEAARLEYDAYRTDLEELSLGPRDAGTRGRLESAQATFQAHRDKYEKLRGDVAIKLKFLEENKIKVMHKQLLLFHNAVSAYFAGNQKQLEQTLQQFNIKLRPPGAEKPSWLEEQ
# UniProt Q9NVV5: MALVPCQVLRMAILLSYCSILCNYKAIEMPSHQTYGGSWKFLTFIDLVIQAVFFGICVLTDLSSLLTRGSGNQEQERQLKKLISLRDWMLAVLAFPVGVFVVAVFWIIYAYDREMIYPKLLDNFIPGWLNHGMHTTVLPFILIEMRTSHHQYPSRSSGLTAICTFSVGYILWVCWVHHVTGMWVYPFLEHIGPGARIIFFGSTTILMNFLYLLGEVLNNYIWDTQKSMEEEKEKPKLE
# UniProt P00352: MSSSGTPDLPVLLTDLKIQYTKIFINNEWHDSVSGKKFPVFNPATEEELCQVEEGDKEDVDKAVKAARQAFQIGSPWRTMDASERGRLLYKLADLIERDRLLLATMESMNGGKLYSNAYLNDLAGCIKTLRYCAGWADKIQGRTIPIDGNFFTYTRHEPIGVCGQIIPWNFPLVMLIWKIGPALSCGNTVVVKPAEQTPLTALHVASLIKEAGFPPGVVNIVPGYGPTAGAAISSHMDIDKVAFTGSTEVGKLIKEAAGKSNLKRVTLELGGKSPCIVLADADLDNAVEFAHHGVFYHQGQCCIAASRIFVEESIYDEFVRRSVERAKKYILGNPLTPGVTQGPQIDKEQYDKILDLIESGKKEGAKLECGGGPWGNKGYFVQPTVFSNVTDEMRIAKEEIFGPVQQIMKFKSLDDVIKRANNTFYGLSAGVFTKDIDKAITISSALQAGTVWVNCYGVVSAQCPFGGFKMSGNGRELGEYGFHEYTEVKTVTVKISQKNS
# UniProt Q9H2P0: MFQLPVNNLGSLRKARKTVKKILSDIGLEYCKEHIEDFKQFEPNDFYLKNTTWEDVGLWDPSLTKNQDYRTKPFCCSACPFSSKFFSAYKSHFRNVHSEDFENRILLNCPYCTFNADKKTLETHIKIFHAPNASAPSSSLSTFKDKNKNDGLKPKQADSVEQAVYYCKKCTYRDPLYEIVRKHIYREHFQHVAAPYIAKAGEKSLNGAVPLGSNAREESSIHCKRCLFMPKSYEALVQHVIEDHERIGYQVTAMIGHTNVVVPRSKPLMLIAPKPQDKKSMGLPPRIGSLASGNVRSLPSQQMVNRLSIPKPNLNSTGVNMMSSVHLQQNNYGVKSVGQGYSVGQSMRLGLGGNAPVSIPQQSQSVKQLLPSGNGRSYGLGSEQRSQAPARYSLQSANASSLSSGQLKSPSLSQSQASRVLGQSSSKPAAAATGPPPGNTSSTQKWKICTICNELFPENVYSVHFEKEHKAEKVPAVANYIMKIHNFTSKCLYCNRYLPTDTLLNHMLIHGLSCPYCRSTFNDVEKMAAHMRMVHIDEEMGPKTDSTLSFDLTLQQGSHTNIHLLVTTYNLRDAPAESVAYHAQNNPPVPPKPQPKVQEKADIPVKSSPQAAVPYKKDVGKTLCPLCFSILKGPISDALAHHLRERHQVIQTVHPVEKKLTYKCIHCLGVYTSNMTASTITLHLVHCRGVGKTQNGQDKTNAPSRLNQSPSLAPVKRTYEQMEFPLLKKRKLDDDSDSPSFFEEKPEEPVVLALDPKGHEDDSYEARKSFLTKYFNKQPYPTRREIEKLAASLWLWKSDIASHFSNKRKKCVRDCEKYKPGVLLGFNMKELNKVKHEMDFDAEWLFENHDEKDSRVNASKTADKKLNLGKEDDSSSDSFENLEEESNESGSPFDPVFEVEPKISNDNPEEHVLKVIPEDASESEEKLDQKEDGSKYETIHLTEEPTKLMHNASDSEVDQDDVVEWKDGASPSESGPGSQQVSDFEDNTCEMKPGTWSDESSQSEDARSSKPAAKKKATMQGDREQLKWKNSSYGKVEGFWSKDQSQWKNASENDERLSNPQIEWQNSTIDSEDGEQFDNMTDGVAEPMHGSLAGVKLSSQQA
# UniProt Q9NR19, whole entry: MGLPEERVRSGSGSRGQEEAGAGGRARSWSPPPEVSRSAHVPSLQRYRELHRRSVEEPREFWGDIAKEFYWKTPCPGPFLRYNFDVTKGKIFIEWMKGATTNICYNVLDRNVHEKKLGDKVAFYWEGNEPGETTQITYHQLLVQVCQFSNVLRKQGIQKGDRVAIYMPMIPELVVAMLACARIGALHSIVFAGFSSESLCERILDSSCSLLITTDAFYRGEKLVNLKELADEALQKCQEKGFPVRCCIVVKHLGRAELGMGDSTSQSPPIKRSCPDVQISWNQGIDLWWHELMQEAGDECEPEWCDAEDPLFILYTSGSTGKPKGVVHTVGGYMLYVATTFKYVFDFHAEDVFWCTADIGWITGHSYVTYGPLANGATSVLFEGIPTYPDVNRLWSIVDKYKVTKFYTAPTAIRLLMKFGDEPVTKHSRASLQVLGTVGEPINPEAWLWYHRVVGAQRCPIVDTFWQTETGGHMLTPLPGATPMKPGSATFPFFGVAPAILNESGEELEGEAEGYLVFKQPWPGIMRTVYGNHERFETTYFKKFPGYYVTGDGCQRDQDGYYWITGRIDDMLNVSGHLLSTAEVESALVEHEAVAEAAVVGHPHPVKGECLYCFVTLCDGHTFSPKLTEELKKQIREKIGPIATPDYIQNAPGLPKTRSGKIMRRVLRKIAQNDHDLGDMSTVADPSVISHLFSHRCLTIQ
# UniProt Q8N6H7: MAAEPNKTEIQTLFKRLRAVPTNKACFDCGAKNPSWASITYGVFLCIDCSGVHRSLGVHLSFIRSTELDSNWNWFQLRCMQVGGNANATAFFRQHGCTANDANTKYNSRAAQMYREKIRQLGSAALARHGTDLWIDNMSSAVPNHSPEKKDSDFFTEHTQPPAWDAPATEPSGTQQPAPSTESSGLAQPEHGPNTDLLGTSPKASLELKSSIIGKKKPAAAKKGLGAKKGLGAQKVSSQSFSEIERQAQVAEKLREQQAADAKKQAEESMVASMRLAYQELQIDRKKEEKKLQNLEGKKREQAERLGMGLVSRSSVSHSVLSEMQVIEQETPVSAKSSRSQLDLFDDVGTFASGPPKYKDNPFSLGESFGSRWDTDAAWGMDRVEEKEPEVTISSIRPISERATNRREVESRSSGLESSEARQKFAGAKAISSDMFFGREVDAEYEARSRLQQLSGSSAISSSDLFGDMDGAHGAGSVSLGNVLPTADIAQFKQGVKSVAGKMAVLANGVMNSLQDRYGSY
# UniProt Q3SY69: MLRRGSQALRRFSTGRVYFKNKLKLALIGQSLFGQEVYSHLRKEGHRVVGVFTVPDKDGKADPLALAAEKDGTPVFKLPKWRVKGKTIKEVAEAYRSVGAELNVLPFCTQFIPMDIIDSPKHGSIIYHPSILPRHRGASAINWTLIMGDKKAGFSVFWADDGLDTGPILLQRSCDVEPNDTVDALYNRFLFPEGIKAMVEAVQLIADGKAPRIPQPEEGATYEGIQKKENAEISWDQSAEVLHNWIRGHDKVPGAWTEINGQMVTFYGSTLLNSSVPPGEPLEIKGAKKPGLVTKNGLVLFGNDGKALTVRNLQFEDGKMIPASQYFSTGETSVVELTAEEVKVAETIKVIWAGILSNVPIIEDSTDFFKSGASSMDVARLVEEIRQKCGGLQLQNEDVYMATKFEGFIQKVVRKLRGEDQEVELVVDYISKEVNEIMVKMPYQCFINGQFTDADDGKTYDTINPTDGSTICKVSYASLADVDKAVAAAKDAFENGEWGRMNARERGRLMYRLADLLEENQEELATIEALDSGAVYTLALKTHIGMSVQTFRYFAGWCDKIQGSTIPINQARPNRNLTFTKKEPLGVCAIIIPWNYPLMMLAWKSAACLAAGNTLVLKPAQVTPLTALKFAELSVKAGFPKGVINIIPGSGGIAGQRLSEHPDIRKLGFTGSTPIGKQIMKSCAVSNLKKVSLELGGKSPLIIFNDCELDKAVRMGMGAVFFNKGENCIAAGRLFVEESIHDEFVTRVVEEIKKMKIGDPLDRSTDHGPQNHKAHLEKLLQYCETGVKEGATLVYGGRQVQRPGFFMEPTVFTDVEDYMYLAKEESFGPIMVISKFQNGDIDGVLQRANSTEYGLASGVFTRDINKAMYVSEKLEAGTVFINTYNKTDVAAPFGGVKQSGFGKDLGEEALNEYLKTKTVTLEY
# Some of the results follow.
# Compound: COc1ccc(Cn2ccc3ccc(C(=O)NO)cc32)cc1
# Test: dose-dependent thermal stabilisation call (2D-TPP, DLPTP, 10% FDR) (binary (1 = stabilised)); higher = stabilised by the compound
# Settings: system: HL-60 intact cells; concentration range 0.04-10 µM
row,Target,dose-dependent thermal stabilisation call
1,ADD1 (UniProt P35611),inactive: 0
2,APTX (UniProt Q7Z2E3),inactive: 0
3,AHCYL2 (UniProt Q96HN2),inactive: 0
4,ACO1 (UniProt P21399),inactive: 0
5,AHCTF1 (UniProt Q8WYP5),inactive: 0
6,ACBD6 (UniProt Q9BR61),inactive: 0
7,ALG11 (UniProt Q2TAA5),inactive: 0
8,AKR1A1 (UniProt P14550),inactive: 0
9,AIFM1 (UniProt O95831),inactive: 0
10,API5 (UniProt Q9BZZ5),inactive: 0
11,AP1S2 (UniProt P56377),inactive: 0
12,ADRBK1 (UniProt P25098),inactive: 0
13,ADAM17 (UniProt P78536),inactive: 0
14,ARL15 (UniProt Q9NXU5),inactive: 0
15,ARHGAP27 (UniProt Q6ZUM4),inactive: 0
16,ACYP1 (UniProt P07311),inactive: 0
17,ACOT9 (UniProt Q9Y305),inactive: 0
18,ANO6 (UniProt Q4KMQ2),inactive: 0
19,ARFIP2 (UniProt P53365),inactive: 0

# Three entries from above, with bars between the fields:
row | Target | dose-dependent thermal stabilisation call
14 | ARL15 (UniProt Q9NXU5) | inactive: 0
15 | ARHGAP27 (UniProt Q6ZUM4) | inactive: 0
16 | ACYP1 (UniProt P07311) | inactive: 0

# The list goes on.

row,Target,dose-dependent thermal stabilisation call
1,ADSS (UniProt P30520),active: 1
2,ANKLE2 (UniProt Q86XL3),inactive: 0
3,ANKMY2 (UniProt Q8IV38),inactive: 0
4,AP3S1 (UniProt Q92572),inactive: 0
5,ANPEP (UniProt P15144),inactive: 0
6,ARHGAP10 (UniProt A1A4S6),inactive: 0
7,AIG1 (UniProt Q9NVV5),inactive: 0
8,AP4E1 (UniProt Q9UPM8),inactive: 0
9,ALDH1A1 (UniProt P00352),active: 1
10,ADNP (UniProt Q9H2P0),inactive: 0
11,ADAP1 (UniProt O75689),inactive: 0
12,ACSS2 (UniProt Q9NR19),inactive: 0
13,ARID4B (UniProt Q4LE39),inactive: 0
14,ARFGAP2 (UniProt Q8N6H7),inactive: 0
15,AFF1 (UniProt P51825),inactive: 0
16,ALDH1L2 (UniProt Q3SY69),inactive: 0
17,AP2B1 (UniProt P63010),inactive: 0
18,AP2A2 (UniProt O94973),inactive: 0
19,ANKRD22 (UniProt Q5VYY1),inactive: 0
